Our source for the binding values is publication PMC5712102.

Amino acid sequences for entries named in this document (tags omitted).
UniProt P35222: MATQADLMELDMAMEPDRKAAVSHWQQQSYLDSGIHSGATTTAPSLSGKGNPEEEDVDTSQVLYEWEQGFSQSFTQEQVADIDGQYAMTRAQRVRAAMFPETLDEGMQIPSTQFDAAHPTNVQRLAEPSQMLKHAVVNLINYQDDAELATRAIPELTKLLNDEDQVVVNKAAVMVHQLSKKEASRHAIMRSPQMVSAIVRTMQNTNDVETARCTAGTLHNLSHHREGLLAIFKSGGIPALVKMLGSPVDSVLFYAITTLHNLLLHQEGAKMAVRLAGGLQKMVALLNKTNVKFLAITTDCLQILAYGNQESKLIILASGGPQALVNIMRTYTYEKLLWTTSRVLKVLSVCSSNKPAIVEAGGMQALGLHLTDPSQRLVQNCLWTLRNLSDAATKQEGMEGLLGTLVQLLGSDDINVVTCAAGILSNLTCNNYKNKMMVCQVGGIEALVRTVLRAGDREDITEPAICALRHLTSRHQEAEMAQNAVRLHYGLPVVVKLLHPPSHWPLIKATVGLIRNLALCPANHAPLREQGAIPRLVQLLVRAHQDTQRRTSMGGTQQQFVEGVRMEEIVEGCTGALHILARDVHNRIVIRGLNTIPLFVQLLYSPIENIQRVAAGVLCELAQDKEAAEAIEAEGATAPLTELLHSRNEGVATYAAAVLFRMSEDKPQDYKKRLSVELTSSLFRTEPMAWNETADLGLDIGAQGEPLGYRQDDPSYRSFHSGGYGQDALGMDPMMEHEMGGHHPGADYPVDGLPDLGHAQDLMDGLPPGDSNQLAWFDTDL
UniProt O43707: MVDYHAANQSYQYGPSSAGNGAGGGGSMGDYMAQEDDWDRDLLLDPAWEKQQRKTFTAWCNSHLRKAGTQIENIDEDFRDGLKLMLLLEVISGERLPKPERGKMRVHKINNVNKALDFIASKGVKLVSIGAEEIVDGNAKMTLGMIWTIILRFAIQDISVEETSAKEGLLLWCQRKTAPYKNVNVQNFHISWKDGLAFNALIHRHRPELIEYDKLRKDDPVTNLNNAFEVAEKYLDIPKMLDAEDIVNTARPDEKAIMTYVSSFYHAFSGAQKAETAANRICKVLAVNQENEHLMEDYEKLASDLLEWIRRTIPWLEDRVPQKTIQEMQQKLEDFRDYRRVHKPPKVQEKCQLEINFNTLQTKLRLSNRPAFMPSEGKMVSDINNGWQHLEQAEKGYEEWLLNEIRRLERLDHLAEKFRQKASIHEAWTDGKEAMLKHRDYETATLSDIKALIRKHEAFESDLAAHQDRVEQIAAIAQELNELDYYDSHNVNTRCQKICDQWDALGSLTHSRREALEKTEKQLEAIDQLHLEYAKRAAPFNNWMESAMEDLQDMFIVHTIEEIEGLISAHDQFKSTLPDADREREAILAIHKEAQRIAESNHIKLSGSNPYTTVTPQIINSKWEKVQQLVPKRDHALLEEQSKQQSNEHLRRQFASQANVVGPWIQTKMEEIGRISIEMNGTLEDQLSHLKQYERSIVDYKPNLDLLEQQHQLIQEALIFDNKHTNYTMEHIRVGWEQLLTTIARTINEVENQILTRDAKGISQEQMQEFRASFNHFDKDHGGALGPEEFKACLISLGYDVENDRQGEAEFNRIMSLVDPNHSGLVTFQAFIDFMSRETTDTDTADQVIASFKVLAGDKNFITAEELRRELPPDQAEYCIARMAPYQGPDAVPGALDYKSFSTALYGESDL

These are yes or no findings as the source states them, for the method shown. Binding seen in cells or lysates may run through a third protein. Some binding calls cover weakened binding; strength is not graded here.

In this assay the target is β-catenin (human (endogenous in breast CSCs sorted from MDA-MB-231)) (UniProt P35222). As to the kind of experiment: co-IP; Dynabeads Protein G immunoprecipitation kit; the precipitating antibody and the cells are not stated.

On to ACTN4 (from UniProt O43707 1-911), for which the binding result is “binds”.
